Laboratory results taken from the supplement of paper PMC10849652.
This is one part of the list.

Amino acid sequences for entries named in this document (tags omitted). A change or cut given only in a name is not applied to a line headed by its entry.
UniProt P05386, whole entry, looked up: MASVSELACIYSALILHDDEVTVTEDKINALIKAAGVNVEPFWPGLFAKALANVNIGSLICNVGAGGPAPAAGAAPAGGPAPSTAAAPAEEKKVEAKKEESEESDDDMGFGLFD
UniProt Q99942: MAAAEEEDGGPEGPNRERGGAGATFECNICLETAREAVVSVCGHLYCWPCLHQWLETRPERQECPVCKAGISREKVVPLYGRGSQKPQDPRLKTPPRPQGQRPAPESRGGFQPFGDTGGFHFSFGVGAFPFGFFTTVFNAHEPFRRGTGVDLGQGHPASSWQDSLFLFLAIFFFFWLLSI
UniProt Q8IZ73: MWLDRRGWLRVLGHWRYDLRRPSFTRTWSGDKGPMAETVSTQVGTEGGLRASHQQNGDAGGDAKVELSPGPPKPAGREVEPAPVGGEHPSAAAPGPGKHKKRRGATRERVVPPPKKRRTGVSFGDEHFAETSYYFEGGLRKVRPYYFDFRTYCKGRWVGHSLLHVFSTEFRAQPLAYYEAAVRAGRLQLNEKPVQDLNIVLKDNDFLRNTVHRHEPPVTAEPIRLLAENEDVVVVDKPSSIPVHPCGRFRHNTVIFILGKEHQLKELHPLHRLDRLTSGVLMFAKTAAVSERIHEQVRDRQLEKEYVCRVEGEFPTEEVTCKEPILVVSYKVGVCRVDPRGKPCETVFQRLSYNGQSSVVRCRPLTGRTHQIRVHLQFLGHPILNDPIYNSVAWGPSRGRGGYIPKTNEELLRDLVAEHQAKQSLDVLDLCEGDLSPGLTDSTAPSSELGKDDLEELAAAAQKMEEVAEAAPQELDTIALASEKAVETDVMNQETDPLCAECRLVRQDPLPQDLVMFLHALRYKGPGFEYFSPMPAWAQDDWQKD
UniProt Q92766: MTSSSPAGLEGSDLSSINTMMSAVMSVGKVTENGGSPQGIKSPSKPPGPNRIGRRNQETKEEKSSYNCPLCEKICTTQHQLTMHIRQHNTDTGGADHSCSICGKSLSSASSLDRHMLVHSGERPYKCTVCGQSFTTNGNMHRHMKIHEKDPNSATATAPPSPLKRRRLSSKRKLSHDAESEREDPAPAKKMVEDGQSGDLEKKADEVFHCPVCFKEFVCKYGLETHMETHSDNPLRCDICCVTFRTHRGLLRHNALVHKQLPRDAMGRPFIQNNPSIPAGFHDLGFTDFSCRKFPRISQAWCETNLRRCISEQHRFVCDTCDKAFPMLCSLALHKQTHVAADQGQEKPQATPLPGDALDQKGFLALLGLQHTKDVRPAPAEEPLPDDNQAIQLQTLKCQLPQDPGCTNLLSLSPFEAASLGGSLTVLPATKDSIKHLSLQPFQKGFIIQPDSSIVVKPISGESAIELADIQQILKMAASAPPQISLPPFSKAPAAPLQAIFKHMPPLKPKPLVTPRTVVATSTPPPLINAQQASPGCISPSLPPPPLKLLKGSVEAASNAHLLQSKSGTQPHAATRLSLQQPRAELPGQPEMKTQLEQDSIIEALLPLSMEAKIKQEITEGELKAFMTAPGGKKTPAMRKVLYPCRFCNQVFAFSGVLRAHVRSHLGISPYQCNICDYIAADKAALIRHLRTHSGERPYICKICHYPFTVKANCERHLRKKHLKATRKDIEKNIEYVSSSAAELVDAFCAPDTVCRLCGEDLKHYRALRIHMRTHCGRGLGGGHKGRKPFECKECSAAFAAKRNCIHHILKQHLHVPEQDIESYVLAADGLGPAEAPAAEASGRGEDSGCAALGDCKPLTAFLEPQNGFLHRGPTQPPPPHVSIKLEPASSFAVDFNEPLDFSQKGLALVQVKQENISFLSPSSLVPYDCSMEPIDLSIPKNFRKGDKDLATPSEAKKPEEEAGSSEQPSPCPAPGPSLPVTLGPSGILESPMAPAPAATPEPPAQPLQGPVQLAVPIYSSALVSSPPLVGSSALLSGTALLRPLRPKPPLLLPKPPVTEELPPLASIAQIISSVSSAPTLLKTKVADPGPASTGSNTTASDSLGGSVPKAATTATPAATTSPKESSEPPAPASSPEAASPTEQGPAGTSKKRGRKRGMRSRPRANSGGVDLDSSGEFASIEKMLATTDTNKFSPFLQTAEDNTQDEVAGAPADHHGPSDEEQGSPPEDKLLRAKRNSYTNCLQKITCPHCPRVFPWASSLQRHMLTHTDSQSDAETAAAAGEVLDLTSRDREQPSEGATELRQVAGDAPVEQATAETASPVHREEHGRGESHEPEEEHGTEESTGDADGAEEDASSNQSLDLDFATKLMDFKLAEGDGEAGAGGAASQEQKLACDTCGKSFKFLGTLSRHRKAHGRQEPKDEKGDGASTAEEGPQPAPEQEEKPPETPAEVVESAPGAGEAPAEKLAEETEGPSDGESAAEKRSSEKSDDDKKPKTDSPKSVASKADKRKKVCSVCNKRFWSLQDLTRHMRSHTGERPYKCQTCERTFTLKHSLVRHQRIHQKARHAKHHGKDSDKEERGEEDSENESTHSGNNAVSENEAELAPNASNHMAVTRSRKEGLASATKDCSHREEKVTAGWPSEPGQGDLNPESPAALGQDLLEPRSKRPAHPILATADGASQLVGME
UniProt O43148, whole entry, looked up: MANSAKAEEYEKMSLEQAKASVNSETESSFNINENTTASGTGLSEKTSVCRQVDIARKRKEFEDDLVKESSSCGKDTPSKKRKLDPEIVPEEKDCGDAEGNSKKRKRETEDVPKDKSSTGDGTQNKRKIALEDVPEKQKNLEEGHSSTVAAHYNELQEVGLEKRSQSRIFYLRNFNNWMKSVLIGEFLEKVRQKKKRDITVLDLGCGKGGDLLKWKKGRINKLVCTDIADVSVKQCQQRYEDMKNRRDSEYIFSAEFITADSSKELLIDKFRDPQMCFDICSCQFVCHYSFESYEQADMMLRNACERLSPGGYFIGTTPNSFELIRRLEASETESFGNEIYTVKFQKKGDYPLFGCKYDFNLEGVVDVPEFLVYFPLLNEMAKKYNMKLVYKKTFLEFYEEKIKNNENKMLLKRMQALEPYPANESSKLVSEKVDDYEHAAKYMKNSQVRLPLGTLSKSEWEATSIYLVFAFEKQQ
UniProt Q96S38: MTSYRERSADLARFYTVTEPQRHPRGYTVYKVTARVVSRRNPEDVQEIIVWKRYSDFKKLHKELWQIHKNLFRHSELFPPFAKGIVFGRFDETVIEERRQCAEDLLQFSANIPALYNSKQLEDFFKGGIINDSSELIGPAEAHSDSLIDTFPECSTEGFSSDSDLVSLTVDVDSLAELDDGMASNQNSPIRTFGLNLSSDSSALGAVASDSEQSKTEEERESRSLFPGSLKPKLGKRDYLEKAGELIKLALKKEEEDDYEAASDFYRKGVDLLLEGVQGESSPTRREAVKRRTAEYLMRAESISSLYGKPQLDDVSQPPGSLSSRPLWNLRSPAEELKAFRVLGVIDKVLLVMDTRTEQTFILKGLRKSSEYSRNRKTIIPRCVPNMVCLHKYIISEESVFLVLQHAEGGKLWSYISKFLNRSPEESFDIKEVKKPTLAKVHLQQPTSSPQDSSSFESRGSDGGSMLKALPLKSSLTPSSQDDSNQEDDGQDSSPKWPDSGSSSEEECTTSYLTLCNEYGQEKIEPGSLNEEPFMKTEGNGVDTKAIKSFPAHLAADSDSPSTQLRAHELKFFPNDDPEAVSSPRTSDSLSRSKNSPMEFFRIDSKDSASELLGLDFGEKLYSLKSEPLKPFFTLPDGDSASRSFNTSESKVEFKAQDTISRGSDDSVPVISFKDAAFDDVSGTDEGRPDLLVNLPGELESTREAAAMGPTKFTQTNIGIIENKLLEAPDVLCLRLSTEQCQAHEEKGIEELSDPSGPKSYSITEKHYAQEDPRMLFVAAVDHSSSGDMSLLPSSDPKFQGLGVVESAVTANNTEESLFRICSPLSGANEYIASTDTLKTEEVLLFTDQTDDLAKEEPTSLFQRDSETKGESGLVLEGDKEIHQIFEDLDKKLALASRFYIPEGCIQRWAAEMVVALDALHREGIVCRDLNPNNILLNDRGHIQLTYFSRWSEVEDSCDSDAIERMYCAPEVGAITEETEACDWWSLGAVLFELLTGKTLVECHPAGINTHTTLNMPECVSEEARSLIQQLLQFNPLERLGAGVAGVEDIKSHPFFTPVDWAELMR
UniProt Q96BH1: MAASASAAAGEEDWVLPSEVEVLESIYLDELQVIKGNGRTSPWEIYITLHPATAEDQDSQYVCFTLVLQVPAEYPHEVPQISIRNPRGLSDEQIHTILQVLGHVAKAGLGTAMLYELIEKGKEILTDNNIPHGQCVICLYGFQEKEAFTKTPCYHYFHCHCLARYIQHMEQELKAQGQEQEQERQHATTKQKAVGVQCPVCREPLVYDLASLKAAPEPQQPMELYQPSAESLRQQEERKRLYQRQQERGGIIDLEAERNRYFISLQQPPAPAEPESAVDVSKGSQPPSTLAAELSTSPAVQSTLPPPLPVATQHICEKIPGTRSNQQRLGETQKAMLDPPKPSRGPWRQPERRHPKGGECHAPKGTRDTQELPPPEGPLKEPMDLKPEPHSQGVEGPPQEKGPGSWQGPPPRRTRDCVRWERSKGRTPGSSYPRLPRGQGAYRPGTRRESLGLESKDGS
UniProt Q15418, whole entry, looked up: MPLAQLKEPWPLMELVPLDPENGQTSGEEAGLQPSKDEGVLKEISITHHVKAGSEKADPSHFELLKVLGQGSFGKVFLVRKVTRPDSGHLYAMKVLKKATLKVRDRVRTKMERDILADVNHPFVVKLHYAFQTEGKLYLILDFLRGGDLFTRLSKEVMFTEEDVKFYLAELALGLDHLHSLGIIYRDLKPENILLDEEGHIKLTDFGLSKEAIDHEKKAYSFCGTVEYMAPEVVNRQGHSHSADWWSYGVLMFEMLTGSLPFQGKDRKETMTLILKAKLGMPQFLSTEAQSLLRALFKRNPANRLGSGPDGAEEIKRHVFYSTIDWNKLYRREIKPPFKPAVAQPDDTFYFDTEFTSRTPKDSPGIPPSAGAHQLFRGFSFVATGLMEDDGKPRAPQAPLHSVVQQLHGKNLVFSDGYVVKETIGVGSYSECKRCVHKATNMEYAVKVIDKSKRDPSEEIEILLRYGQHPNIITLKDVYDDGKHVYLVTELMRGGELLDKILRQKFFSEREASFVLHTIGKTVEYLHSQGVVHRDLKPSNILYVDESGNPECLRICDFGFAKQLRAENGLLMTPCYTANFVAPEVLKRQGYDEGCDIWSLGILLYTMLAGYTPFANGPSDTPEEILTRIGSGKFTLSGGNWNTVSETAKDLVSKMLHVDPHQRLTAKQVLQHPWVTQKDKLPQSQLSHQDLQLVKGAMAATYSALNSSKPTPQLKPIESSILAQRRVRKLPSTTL
UniProt P78346: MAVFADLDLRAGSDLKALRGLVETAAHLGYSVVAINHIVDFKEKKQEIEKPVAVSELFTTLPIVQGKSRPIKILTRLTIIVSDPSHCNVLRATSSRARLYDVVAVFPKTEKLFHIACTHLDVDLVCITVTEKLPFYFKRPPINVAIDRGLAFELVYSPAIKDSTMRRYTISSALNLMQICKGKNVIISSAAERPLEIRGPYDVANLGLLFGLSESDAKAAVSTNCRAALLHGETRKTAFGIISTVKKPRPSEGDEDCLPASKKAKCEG
UniProt Q5VZM2, whole entry, looked up: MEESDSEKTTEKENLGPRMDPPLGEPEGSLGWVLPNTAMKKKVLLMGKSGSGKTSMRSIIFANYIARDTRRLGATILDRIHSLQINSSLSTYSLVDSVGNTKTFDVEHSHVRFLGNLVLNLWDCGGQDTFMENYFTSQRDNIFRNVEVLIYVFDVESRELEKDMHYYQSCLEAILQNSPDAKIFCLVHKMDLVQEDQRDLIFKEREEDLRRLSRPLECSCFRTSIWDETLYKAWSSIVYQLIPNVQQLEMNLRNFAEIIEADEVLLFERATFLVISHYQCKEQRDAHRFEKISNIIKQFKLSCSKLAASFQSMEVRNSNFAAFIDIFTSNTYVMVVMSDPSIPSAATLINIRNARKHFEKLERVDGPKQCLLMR
UniProt Q9H633: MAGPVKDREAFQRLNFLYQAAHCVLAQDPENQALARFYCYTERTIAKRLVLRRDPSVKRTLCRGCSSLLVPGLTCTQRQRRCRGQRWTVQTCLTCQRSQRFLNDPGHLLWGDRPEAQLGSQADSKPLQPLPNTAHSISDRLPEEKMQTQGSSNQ

Experiments:
Assay in all cases: log2 fold change, soluble protein after heating vs DMSO (PISA); higher = thermal stabilisation; K562 cells, 10 uM, 30 min; active = over 0.2 and 3.5 SD of the protein, either way, in both replicates (recomputed)
[1] = compound: CC1=C(C=C(C=C1)NC(=O)C2=CC(=CC=C2)C(C)(C)C#N)NC3=CC4=C(C=C3)N=CN(C4=O)C
How it was run: (§1)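 K562 cells at 2×10^6 cells/mL were treated for 30 min with 10 μM compound, and aliquots were heated for 3 min over 48°C-58°C before pooling. Extraction used PBS with 0.5% NP-40 at 4°C, and soluble protein was the supernatant after 21,000xg for 90 min, measured by TMTpro 16plex LC-MS/MS with channel sums equalised. Thermal stability values, relative to control samples and from duplicates, are log2 fold changes.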

[2] = compound: CC1=C(C=C(C=C1)NC(=O)C2=CC(=CC=C2)N(C)C)NC(=O)C3=CC=C(C=C3)O
How it was run: as §1

[3] = compound: CC1=CC=C(C=C1)SC2=C3C=C(SC3=CN=C2)C(=O)N
How it was run: as §1

[4] = compound: CC1=NC(=CC=C1)C2=C(N=C(N2)C(C)(C)C)C3=CC4=NC=CN=C4C=C3
How it was run: as §1

Nexturastat A = compound: CCCCN(Cc1ccc(C(=O)NO)cc1)C(=O)Nc1ccccc1 [Nexturastat A]
How it was run: as §1

vemurafenib = compound: CCCS(=O)(=O)Nc1ccc(F)c(C(=O)c2c[nH]c3ncc(-c4ccc(Cl)cc4)cc23)c1F [vemurafenib]
How it was run: as §1

[5] = compound: CCCS(=O)(=O)Nc1ccc(F)c(C(=O)c2c[nH]c3ncc(Cl)cc23)c1F
How it was run: as §1

[6] = compound: CCCc1cc(C)[nH]c(=O)c1CNC(=O)c1cc(-c2ccnc(N3CCN(C)CC3)c2)cc2c1cnn2C(C)C
How it was run: as §1

givinostat = compound: CCN(CC)Cc1ccc2cc(COC(=O)Nc3ccc(C(=O)NO)cc3)ccc2c1 [givinostat]
How it was run: as §1

barasertib = compound: CCN(CCCOc1ccc2c(Nc3cc(CC(=O)Nc4cccc(F)c4)[nH]n3)ncnc2c1)CCOP(=O)(O)O [barasertib]
How it was run: as §1

Measured: log2 fold change

RPS3A (UniProt D6R9B6)
inactive: [1] -0.199

RPL24 (UniProt P83731)
inactive: [1] 0.019 | [2] 0.002 | [3] -0.03 | [4] -0.165 | Nexturastat A 0.272 | vemurafenib -0.117 | [5] -0.06 | [6] 0.206 | givinostat 0.015 | barasertib -0.092

RPS10 (UniProt P46783)
inactive: [1] 0.009 | [2] 0.012 | [3] -0.073 | [4] -0.031 | Nexturastat A 0.128 | vemurafenib -0.091 | [5] -0.082 | [6] 0.086 | givinostat -0.007 | barasertib -0.067

RPS8 (UniProt P62241)
inactive: [1] -0.011 | [2] -0.024 | [3] -0.094 | [4] -0.045 | Nexturastat A 0.252 | vemurafenib -0.144 | [5] -0.069 | [6] 0.121 | givinostat 0.05 | barasertib -0.12

RPLP1 (UniProt P05386)
inactive: [1] -0.109 | [2] 0.041 | [3] -0.167 | [4] -0.279 | Nexturastat A 0.506 | vemurafenib -0.235 | [5] -0.048 | [6] 0.268 | givinostat 0.108 | barasertib -0.12

RPS18 (UniProt P62269)
inactive: [1] -0.014 | [2] 0 | [3] -0.049 | [4] -0.061 | Nexturastat A 0.148 | vemurafenib -0.125 | [5] -0.04 | [6] -0.01 | givinostat 0.021 | barasertib -0.067

RNF5 (UniProt Q99942)
inactive: [1] -0.02 | [2] 0.087 | [3] 0.03 | [4] 0.039 | Nexturastat A -0.052 | vemurafenib -0.024 | [5] 0.005 | [6] 0.023 | givinostat 0.129 | barasertib 0.037

RPUSD2 (UniProt Q8IZ73)
inactive: [1] 0.055 | [2] 0.031 | [3] -0.007 | [4] 0.01 | Nexturastat A 0.006 | vemurafenib -0.016 | [5] 0.014 | [6] 0.045 | givinostat -0.009 | barasertib -0.015

RREB1 isoform 2 (UniProt Q92766)
inactive: [1] 0.047 | [2] -0.017 | [3] -0.132 | [4] 0.018 | Nexturastat A -0.098 | vemurafenib -0.011 | [5] -0.002 | [6] -0.12 | givinostat -0.06 | barasertib 0.105

RPS16 (UniProt P62249)
inactive: [1] 0.028 | [2] -0.016 | [3] -0.087 | [4] -0.035 | Nexturastat A 0.11 | vemurafenib -0.073 | [5] -0.103 | [6] 0.337 | givinostat -0.046 | barasertib -0.053

RPS27A (UniProt P62979)
inactive: [1] -0.023 | [2] -0.011 | [3] -0.179 | [4] -0.075 | Nexturastat A 0.368 | vemurafenib -0.126 | [5] -0.224 | [6] 0.152 | givinostat -0.109 | barasertib -0.119

RPS5 (UniProt P46782)
inactive: [1] 0.012 | [2] 0 | [3] 0.001 | [4] -0.038 | Nexturastat A 0.126 | vemurafenib -0.034 | [5] -0.066 | [6] 0.038 | givinostat -0.014 | barasertib -0.1

RNMT isoform 2 (UniProt O43148)
inactive: [1] -0.01 | [2] 0.007 | [3] -0.037 | [4] -0.016 | Nexturastat A 0.059 | vemurafenib -0.139 | [5] 0 | [6] -0.017 | givinostat -0.011 | barasertib -0.024

RPTOR (UniProt Q8N122)
inactive: [1] 0.009 | [2] 0.019 | [3] 0.027 | [4] 0.025 | Nexturastat A -0.018 | vemurafenib 0.017 | [5] 0.09 | [6] 0.012 | givinostat -0.007 | barasertib -0.007

RPL17 isoform 3 (UniProt P18621)
inactive: [1] 0.038 | [2] -0.006 | [3] -0.066 | [4] -0.084 | Nexturastat A 0.278 | vemurafenib -0.128 | [5] -0.065 | [6] 0.117 | givinostat -0.038 | barasertib -0.085

RPL27A (UniProt P46776)
inactive: [1] -0.023 | [2] 0.022 | [3] -0.196 | [4] -0.188 | Nexturastat A 0.329 | vemurafenib -0.209 | [5] -0.203 | [6] 0.16 | givinostat 0.053 | barasertib -0.148

RPS6KC1 (UniProt Q96S38)
inactive: [1] -0.023 | [2] 0.04 | [3] -0.017 | [4] 0.01 | Nexturastat A 0.214 | vemurafenib 0.055 | [5] 0.014 | [6] -0.211 | givinostat 0.12 | barasertib 0.008

RNF25 (UniProt Q96BH1)
inactive: [1] 0.019 | [2] 0.029 | [3] 0.037 | [4] 0.063 | Nexturastat A -0.04 | vemurafenib 0.03 | [5] 0.053 | [6] -0.018 | givinostat -0.03 | barasertib 0.004

RPS6KA1 isoform 2 (UniProt Q15418)
inactive: [1] -0.016 | [2] -0.187 | [3] 0.033 | [4] 0.078 | Nexturastat A 0.004 | vemurafenib 0.016 | [5] 0.046 | [6] 0.071 | givinostat -0.141 | barasertib 0.029

Two records picked at random from the list so far, as already listed:
RPS6KC1 (UniProt Q96S38)
inactive: [1] -0.023 | [2] 0.04 | [3] -0.017 | [4] 0.01 | Nexturastat A 0.214 | vemurafenib 0.055 | [5] 0.014 | [6] -0.211 | givinostat 0.12 | barasertib 0.008

RNF25 (UniProt Q96BH1)
inactive: [1] 0.019 | [2] 0.029 | [3] 0.037 | [4] 0.063 | Nexturastat A -0.04 | vemurafenib 0.03 | [5] 0.053 | [6] -0.018 | givinostat -0.03 | barasertib 0.004

Following part.

RPL38 (UniProt P63173)
inactive: [1] 0.032 | [2] 0.017 | [3] -0.038 | [4] -0.045 | Nexturastat A 0.075 | vemurafenib -0.003 | [5] 0.006 | [6] 0.069 | givinostat -0.054 | barasertib -0.025

RPS14 (UniProt P62263)
inactive: [1] 0.03 | [2] 0 | [3] -0.041 | [4] -0.004 | Nexturastat A 0.102 | vemurafenib -0.066 | [5] -0.038 | [6] 0.046 | givinostat 0.023 | barasertib -0.04

RPS3 (UniProt P23396)
inactive: [1] 0.011 | [2] 0.003 | [3] -0.077 | [4] -0.042 | Nexturastat A 0.069 | vemurafenib -0.086 | [5] -0.102 | [6] 0.041 | givinostat 0.007 | barasertib -0.088

RPP30 isoform 2 (UniProt P78346)
inactive: [1] 0.076 | [2] -0.01 | [3] -0.029 | [4] -0.016 | Nexturastat A 0.068 | vemurafenib -0.108 | [5] -0.006 | [6] 0.066 | givinostat 0.01 | barasertib -0.007

RPS17 (UniProt P08708)
inactive: [1] 0.028 | [2] 0.025 | [3] -0.027 | [4] -0.026 | Nexturastat A 0.149 | vemurafenib -0.032 | [5] -0.063 | [6] 0.173 | givinostat 0.003 | barasertib -0.075

RRAGB (UniProt Q5VZM2)
inactive: [1] 0.013 | [2] 0.018 | [3] 0.011 | [4] -0.01 | Nexturastat A -0.071 | vemurafenib 0.001 | [5] 0.028 | [6] -0.023 | givinostat -0.044 | barasertib -0.004

RPL35 (UniProt P42766)
inactive: [1] -0.017 | [2] 0.053 | [3] -0.067 | [4] -0.112 | Nexturastat A 0.271 | vemurafenib -0.147 | [5] -0.121 | [6] 0.121 | givinostat 0.04 | barasertib -0.111

RPL4 (UniProt P36578)
inactive: [1] 0.06 | [2] 0 | [3] -0.071 | [4] -0.192 | Nexturastat A 0.348 | vemurafenib -0.291 | [5] -0.093 | [6] 0.317 | givinostat 0.165 | barasertib -0.199

RPP21 isoform 4 (UniProt Q9H633)
inactive: [1] -0.001 | [2] -0.008 | [3] -0.012 | [4] -0.089 | Nexturastat A -0.006 | vemurafenib -0.067 | [5] 0.129 | [6] -0.093 | givinostat 0.117 | barasertib -0.025

RPL32 (UniProt P62910)
inactive: [1] 0.049 | [2] 0 | [3] -0.039 | [4] -0.176 | Nexturastat A 0.349 | vemurafenib -0.223 | [5] -0.063 | [6] 0.202 | givinostat 0.004 | barasertib -0.183

RPS20 isoform 2 (UniProt P60866)
inactive: [1] 0.056 | [2] 0.021 | [3] -0.049 | [4] -0.077 | Nexturastat A 0.112 | vemurafenib -0.117 | [5] -0.068 | [6] 0.008 | givinostat -0.032 | barasertib -0.063
